Measurements as given in article PMC5291411, “Cytotoxic conjugates of betulinic acid and substituted triazoles prepared by Huisgen Cycloaddition from 30-azidoderivatives” (PLoS ONE, 2017).

Test system: CCRF-CEM
Assay: Cytotoxic MTS assay, CCRF-CEM
Format: cell-based, human
Conditions: IC50 of CCRF-CEM line vs average of both fibroblasts (BJ, MRC-5)
Text: Cytotoxic activity of all synthesized compounds was investigated in vitro against eight human cancer cell lines and two non-tumor fibroblasts using the standard MTS test (Table 1). The cancer cell lines were derived from T-lymphoblastic leukemia CCRF-CEM, leukemia K562 and their multiresistant counterparts expressing P-glycoprotein, MRP1 and LRP proteins (CEM-DNR, K562-TAX), solid tumors including lung (A549) and colon (HCT116, HCT116p53-/-) carcinomas, osteosarcoma cell line (U2OS), and for comparison, tests were performed on two human non-cancer fibroblast cell lines (BJ, MRC-5).
Biological assays were performed in concordance with our previous publications [[29], [58]; [60]; [61]]. All cells (if not indicated otherwise) were purchased from the American Tissue Culture Collection (ATCC). The CCRF-CEM line is derived from T lymphoblastic leukemia, evincing high chemosenzitivity, K562 represent cells from an acute myeloid leukemia patient sample with bcr-abl translocation, U2OS line is derived from osteosarcoma, HCT116 is colorectal tumor cell line and its p53 gene knock-down counterpart (HCT116p53-/-, Horizon Discovery Ltd, UK) is a model of human cancers with p53 mutation frequently associated with poor prognosis, A549 line is lung adenocarcinoma. The daunorubicin resistant subline of CCRF-CEM cells (CEM-DNR bulk) and paclitaxel resistant subline K562-TAX were selected in our laboratory by the cultivation of maternal cell lines in increasing concentrations of daunorubicine or paclitaxel, respectively. The CEM-DNR bulk cells overexpress MRP-1 and P-glycoprotein protein, while K562-TAX cells overexpress P-glycoprotein only. Both proteins belong to the family of ABC transporters and are involved in the primary and/or acquired multidrug resistance phenomenon. MRC-5 and BJ cell lines were used as a non-tumor control and represent human fibroblasts. The cells were maintained in nunc/corning 80 cm^2 plastic tissue culture flasks and cultured in cell culture medium according to ATCC or Horizon recommendations (DMEM/RPMI 1640 with 5 g/L glucose, 2 mM glutamine, 100 U/mL penicillin, […] streptomycin, 10% fetal calf serum, and NaHCO3).
MTS assay was performed at Institute of Molecular and Translational Medicine by robotic platform (HighResBiosolutions). Cell suspensions were prepared and diluted according to the particular cell type and the expected target cell density (25000–35000 cells/mL based on cell growth characteristics). Cells were added by automatic pipetor (30 μL) into 384 well microtiter plates. All tested compounds were dissolved in 100% DMSO and four-fold dilutions of the intended test concentration were added in 0.15 μL aliquots at time zero to the microtiter plate wells by the echoacustic non-contact liquid handler Echo550 (Labcyte). The experiments were performed in technical duplicates and three biological replicates at least. The cells were incubated with the tested compounds for 72 h at 37°C, in a 5% CO2 atmosphere at 100% humidity. At the end of the incubation period, the cells were assayed by using the MTS test. Aliquots (5 μL) of the MTS stock solution were pipetted into each well and incubated for additional 1–4 h. After this incubation period, the optical density (OD) was measured at 490 nm with an Envision reader (Perkin Elmer). Tumor cell survival (TCS) was calculated by using the following equation: TCS = (ODdrug-exposed well/mean ODcontrol wells) × 100%. The IC50 value, the drug concentration that is lethal to 50% of the tumor cells, was calculated from the appropriate dose-response curves in Dotmatics software.

SMILES | TI (therapeutic index)
C=C(C)[C@@H]1CC[C@]2(C(=O)O)CC[C@]3(C)[C@H](CC[C@@H]4[C@@]5(C)CC[C@H](O)C(C)(C)[C@@H]5CC[C@]43C)[C@@H]12 [Compound 1, betulinic acid] | 0.7
C=C(CBr)[C@@H]1CC[C@]2(C(=O)O)CC[C@]3(C)C(CCC4[C@@]5(C)CC[C@H](OC(C)=O)C(C)(C)C5CC[C@]43C)C12 (stereo partly drawn) [Compound 4, 3β-O-Acetyl-30-bromobetulinic acid] | 4.9
C=C(CN=[N+]=[N-])[C@@H]1CC[C@]2(C(=O)O)CC[C@]3(C)C(CCC4[C@@]5(C)CC[C@H](OC(C)=O)C(C)(C)C5CC[C@]43C)C12 (stereo partly drawn) [Compound 6, 3β-O-Acetyl-30-azidobetulinic acid] | 3.2
C=C(CN=[N+]=[N-])[C@@H]1CC[C@]2(C(=O)O)CC[C@]3(C)C(CCC4[C@@]5(C)CC[C@H](O)C(C)(C)C5CC[C@]43C)C12 (stereo partly shown) [Compound 8, 30-azidobetulinic acid] | 1.2
C=C(Cn1cc(-c2ccccc2)nn1)[C@@H]1CC[C@]2(C(=O)O)CC[C@]3(C)C(CCC4[C@@]5(C)CC[C@H](OC(C)=O)C(C)(C)C5CC[C@]43C)C12 (stereo partly shown) [Compound 9a] | >3.1
C=C(Cn1cc(-c2ccccc2C=O)nn1)[C@@H]1CC[C@]2(C(=O)O)CC[C@]3(C)C(CCC4[C@@]5(C)CC[C@H](OC(C)=O)C(C)(C)C5CC[C@]43C)C12 (stereo partly shown) [Compound 9b] | 9.1
C=C(Cn1cc(-c2ccccn2)nn1)[C@@H]1CC[C@]2(C(=O)O)CC[C@]3(C)C(CCC4[C@@]5(C)CC[C@H](OC(C)=O)C(C)(C)C5CC[C@]43C)C12 (stereo partly shown) [Compound 9c] | 3.2
C=C(Cn1cc(-c2cccnc2)nn1)[C@@H]1CC[C@]2(C(=O)O)CC[C@]3(C)C(CCC4[C@@]5(C)CC[C@H](OC(C)=O)C(C)(C)C5CC[C@]43C)C12 (stereo partly shown) [Compound 9d] | 1.9
C=C(Cn1cc(-c2ccc(N(C)C)cc2)nn1)[C@@H]1CC[C@]2(C(=O)O)CC[C@]3(C)C(CCC4[C@@]5(C)CC[C@H](OC(C)=O)C(C)(C)C5CC[C@]43C)C12 (stereo partly shown) [Compound 9e] | 1.6
C=C(Cn1cc(-c2ccc(C(C)(C)C)cc2)nn1)[C@@H]1CC[C@]2(C(=O)O)CC[C@]3(C)C(CCC4[C@@]5(C)CC[C@H](OC(C)=O)C(C)(C)C5CC[C@]43C)C12 (stereo partly shown) [Compound 9f] | >1.4
C=C(Cn1cc(C2CCCC2)nn1)[C@@H]1CC[C@]2(C(=O)O)CC[C@]3(C)C(CCC4[C@@]5(C)CC[C@H](OC(C)=O)C(C)(C)C5CC[C@]43C)C12 (stereo partly shown) [Compound 9g] | >1.9
C=C(Cn1cc(CN)nn1)[C@@H]1CC[C@]2(C(=O)O)CC[C@]3(C)C(CCC4[C@@]5(C)CC[C@H](OC(C)=O)C(C)(C)C5CC[C@]43C)C12 (stereo partly shown) [Compound 9h] | >2.5
C=C(Cn1cc(-c2ccccc2)nn1)[C@@H]1CC[C@]2(C(=O)O)CC[C@]3(C)C(CCC4[C@@]5(C)CC[C@H](O)C(C)(C)C5CC[C@]43C)C12 (stereo partly shown) [Compound 11a] | >3.0
C=C(Cn1cc(-c2ccccc2C=O)nn1)[C@@H]1CC[C@]2(C(=O)O)CC[C@]3(C)C(CCC4[C@@]5(C)CC[C@H](O)C(C)(C)C5CC[C@]43C)C12 (stereo partly shown) [Compound 11b] | >5.9
C=C(Cn1cc(-c2ccccn2)nn1)[C@@H]1CC[C@]2(C(=O)O)CC[C@]3(C)C(CCC4[C@@]5(C)CC[C@H](O)C(C)(C)C5CC[C@]43C)C12 (stereo partly shown) [Compound 11c] | >3.5
C=C(Cn1cc(C2CCCC2)nn1)[C@@H]1CC[C@]2(C(=O)O)CC[C@]3(C)C(CCC4[C@@]5(C)CC[C@H](O)C(C)(C)C5CC[C@]43C)C12 (stereo partly shown) [Compound 11g] | >3.0
